What all share (assay): co-IP
The target of experiment [1] is PHYH-FLAG-HA (human) (UniProt O14832).
In experiment [2] the target is ACAA1-FLAG-HA (human) (UniProt P09110).
For experiment [3], the target named is HsPEX39-FLAG-HA (human) (UniProt Q5I0X4).
The target of experiment [4] is T1, PEX7-FLAG-HA (human) (UniProt O00628).
T1 sequence: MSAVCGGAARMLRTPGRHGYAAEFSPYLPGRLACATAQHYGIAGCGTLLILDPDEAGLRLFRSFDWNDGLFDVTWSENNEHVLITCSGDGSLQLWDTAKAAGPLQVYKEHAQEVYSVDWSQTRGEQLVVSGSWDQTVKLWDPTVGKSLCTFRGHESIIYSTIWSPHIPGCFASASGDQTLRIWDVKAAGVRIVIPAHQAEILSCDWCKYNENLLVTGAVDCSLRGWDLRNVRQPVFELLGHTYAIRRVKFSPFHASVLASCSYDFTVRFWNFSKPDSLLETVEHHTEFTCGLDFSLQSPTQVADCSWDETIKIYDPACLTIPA

Amino acid sequences for entries named in this document (tags omitted). A change or cut given only in a name is not applied to a line headed by its entry. Residues count along the entry.
UniProt O14832: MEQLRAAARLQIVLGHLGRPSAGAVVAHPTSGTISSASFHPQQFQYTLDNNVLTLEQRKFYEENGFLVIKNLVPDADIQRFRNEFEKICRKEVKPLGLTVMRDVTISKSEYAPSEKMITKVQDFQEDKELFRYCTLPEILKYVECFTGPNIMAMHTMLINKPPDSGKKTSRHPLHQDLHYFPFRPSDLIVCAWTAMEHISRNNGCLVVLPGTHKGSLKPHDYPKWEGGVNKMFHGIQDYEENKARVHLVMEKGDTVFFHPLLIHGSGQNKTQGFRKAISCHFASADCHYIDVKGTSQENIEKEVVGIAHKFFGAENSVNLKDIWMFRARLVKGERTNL
UniProt P09110: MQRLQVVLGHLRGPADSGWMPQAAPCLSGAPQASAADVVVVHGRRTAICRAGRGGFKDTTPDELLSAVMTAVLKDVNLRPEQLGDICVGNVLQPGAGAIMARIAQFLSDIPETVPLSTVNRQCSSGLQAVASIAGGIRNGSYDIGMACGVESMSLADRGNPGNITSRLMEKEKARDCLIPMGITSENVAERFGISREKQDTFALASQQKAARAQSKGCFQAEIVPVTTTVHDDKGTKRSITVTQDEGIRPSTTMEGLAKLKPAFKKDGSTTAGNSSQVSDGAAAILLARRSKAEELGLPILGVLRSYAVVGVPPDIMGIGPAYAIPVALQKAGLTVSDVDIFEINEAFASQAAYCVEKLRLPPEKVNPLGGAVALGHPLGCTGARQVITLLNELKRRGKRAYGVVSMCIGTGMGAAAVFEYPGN
UniProt Q5I0X4: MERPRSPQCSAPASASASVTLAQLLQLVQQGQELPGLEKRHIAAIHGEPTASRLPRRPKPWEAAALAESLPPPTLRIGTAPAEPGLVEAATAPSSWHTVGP
UniProt P27824, residues 21-592: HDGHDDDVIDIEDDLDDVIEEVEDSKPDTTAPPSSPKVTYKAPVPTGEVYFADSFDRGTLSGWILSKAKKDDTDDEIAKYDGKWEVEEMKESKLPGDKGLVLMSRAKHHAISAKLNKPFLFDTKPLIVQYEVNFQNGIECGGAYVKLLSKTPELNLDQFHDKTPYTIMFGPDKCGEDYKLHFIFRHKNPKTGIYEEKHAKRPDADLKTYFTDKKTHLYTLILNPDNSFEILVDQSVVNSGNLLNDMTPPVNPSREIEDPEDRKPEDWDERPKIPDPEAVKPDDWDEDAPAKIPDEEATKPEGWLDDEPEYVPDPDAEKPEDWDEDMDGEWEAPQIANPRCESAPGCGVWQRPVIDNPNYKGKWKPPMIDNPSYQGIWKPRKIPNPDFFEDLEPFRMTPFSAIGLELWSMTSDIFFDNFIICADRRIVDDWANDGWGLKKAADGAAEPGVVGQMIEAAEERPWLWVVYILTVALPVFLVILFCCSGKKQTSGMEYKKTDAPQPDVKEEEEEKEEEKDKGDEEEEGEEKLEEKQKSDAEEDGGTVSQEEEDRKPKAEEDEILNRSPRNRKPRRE
UniProt Q92968: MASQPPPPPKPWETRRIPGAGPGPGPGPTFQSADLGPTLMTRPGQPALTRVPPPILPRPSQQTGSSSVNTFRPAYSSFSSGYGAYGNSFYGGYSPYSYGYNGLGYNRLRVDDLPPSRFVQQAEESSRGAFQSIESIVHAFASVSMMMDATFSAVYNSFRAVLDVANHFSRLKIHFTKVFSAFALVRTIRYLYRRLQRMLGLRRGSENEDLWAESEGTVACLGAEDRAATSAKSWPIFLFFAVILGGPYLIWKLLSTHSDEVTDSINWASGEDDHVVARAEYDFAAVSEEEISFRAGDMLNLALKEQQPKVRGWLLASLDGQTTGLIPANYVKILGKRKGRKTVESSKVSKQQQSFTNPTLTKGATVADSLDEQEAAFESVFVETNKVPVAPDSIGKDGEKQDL
UniProt O00116: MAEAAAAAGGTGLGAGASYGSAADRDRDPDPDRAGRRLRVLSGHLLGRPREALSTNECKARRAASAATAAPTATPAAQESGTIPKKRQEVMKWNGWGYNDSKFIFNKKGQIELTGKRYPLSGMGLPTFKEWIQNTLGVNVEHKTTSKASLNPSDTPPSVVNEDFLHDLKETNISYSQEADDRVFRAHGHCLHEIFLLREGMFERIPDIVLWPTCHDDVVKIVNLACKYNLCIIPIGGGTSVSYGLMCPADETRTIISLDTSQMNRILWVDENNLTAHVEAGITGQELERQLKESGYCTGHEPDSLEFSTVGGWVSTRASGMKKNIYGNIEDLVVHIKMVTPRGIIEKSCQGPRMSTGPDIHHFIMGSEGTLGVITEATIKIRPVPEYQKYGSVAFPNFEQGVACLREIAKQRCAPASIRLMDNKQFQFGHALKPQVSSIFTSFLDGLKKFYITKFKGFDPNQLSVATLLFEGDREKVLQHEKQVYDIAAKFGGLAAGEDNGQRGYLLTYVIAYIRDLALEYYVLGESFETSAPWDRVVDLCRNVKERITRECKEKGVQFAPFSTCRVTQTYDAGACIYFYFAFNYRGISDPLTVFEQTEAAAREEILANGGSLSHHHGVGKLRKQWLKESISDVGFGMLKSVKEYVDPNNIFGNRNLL

The target in experiment [5] is HsPEX39-FLAG-HA (human) (UniProt Q5I0X4). This is another data set of the same source.
Experiment [6] concerns the target T1, PEX7-FLAG-HA (human). The source holds these as a separate data set.
For experiment [7], the target named is PHYH-FLAG-HA (human) (UniProt O14832). The source holds these as a separate data set.
The target in experiment [8] is ACAA1-FLAG-HA (human) (UniProt P09110). This is another data set of the same source.

Like-named read-outs stand apart in the source and are kept apart here. Results are given in words; binding and its absence hold for the method and conditions named. Binding seen in cells or lysates may run through a third protein. Binding calls can cover weak binding; strength is not graded here. For some assays here: Where a sequence is shown, tags or fusion partners need not be part of it.

Take “calnexin (CANX) (from UniProt P27824 21-592)”: the binding entry in the experiment with PHYH-FLAG-HA (human) [1] and with ACAA1-FLAG-HA (human) [2] was “no binding” throughout.

“endogenous PHYH (precursor form) (from UniProt O14832) (enzyme)”: the binding result with HsPEX39-FLAG-HA (human) [3], with PEX7-FLAG-HA (human) [4], in the experiment with HsPEX39-FLAG-HA (human) [5] and with PEX7-FLAG-HA (human) [6] was “binds” throughout.

For the substance “endogenous HsPEX13 (from UniProt Q92968 1-403)”, the binding result in the experiment with PHYH-FLAG-HA (human) [1] and in the experiment with ACAA1-FLAG-HA (human) [2] was “binds” in each case.

With “endogenous alkyl-DHAP synthase (AGPS) (precursor form) (from UniProt O00116) (enzyme)”, the binding result in the experiment with HsPEX39-FLAG-HA (human) [3], in the experiment with PEX7-FLAG-HA (human) [4], with HsPEX39-FLAG-HA (human) [5] and with PEX7-FLAG-HA (human) [6] was “binds” throughout.

Turning to “endogenous HsPEX39 (from UniProt Q5I0X4 1-101)”, the binding entry in the experiment with PHYH-FLAG-HA (human) [7], with ACAA1-FLAG-HA (human) [8], in the experiment with PHYH-FLAG-HA (human) [1] and in the experiment with ACAA1-FLAG-HA (human) [2] was “binds” in each case.

“endogenous ACAA1 (precursor form) (from UniProt P09110) (enzyme)”: the binding entry with HsPEX39-FLAG-HA (human) [3], in the experiment with PEX7-FLAG-HA (human) [4], with HsPEX39-FLAG-HA (human) [5] and with PEX7-FLAG-HA (human) [6] was “binds” throughout.

The values are drawn from publication doi:10.1101/2024.04.30.591961.
